These are yes or no findings as the source states them, for the method shown. Binding seen in cells or lysates may run through a third protein. Some binding calls cover weakened binding; strength is not graded here.
Tests used:
HSP90β, transfected = HSP90β, transfected (UniProt P08238); assay: co-IP; A549 cells co-transfected with HSP90β and p53, with gradient overexpression of DMRTA2; p53 bound to HSP90β detected
[1] = target: DMRTA2, endogenous (human (endogenous in human lung cell lines; the line is not stated)) (UniProt Q96SC8); assay: co-IP; endogenous immunoprecipitation; NP40 lysate, Protein A + G agarose, overnight at 4 °C, IgG control; cells and precipitating antibody not stated
[2] = target: DMRTA2 overexpressed from the pCMV6-Flag-DMRTA2 plasmid (human) (UniProt Q96SC8); assay: co-IP; exogenous immunoprecipitation (overexpressed DMRTA2); NP40 lysate, Protein A + G agarose, overnight at 4 °C, IgG control; cells and precipitating antibody not stated

Amino acid sequences for entries named in this document (tags omitted).
UniProt P08238: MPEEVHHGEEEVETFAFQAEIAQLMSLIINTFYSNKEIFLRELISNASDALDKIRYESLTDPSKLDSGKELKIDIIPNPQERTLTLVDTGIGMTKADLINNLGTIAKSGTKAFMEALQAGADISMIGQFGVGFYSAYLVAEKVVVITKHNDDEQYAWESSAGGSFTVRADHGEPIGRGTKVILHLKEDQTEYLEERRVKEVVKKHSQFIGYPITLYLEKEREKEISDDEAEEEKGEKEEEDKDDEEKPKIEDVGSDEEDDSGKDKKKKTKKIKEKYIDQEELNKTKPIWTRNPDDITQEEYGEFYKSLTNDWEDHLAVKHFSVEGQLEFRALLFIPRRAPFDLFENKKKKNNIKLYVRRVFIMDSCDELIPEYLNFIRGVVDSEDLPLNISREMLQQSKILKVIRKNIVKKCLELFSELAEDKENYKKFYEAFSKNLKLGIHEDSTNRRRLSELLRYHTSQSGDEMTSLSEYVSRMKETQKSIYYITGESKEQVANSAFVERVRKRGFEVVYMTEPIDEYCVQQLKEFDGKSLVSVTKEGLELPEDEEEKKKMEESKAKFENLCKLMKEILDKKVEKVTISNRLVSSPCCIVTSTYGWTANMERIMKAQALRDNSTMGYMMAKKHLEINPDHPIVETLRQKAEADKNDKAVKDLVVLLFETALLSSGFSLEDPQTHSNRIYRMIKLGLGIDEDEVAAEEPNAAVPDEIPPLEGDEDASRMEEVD
UniProt Q96SC8: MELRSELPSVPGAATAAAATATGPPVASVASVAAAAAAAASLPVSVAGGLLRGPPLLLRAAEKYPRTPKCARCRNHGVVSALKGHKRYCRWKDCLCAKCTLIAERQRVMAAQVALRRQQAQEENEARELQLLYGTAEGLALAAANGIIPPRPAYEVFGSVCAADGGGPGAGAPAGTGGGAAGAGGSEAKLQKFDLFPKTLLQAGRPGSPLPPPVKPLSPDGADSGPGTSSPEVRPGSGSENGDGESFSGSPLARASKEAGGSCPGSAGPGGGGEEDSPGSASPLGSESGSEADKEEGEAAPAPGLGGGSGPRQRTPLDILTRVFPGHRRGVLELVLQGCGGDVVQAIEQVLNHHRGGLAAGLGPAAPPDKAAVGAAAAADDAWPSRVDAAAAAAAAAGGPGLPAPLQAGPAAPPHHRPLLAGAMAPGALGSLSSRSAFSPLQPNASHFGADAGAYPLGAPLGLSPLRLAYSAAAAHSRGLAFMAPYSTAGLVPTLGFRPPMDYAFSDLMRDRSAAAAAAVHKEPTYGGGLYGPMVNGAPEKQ

binding (HSP90β, transfected) | binding [1] | binding [2] | Substance
binds | – | – | DMRTA2 overexpressed from the pCMV6-Flag-DMRTA2 plasmid (from UniProt Q96SC8 1-542)
– | binds | binds | HSP90β, endogenous (from UniProt P08238 1-724)

Reference: publication PMC12293498
